Measurements: patent publication US20130324533A1, “METHOD OF DETECTING RESISTANCE TO CANCER THERAPY” (NATIONAL UNIVERSITY OF SINGAPORE, priority 2010, published 2013)

Legend:
Test in all cases: cells
KYO-1 cells = conditions: Homo sapiens, KYO1, read-out: IC50 of cell line treated with imatinib
Procedure: (§1) Apoptosis was measured using the Annexin V-FITC/7-AAD kit (Beckman Coulter) according to the manufacturer's instructions. Briefly, treated and untreated cells were Annexin V-FITC- and 7-AAD-stained in 1× binding buffer for 15 min at room temperature and then analyzed by flow cytometry.

KCL22 cells = conditions: Homo sapiens, KCL-22, read-out: IC50 of cell line treated with imatinib
Procedure: as §1

NCO2 cells = conditions: Homo sapiens, read-out: IC50 of cell line treated with imatinib
Procedure: as §1

IC50 (KYO-1 cells): 270 nM
IC50 (KCL22 cells): > 10000 nM
IC50 (NCO2 cells): 340 nM
Compound: Cc1ccc(NC(=O)c2ccc(CN3CCN(C)CC3)cc2)cc1Nc1nccc(-c2cccnc2)n1 [imatinib]
